# Laboratory results reported in the supplement of paper PMC7666118.
# Protein sequences, listed by entry. Tags and fused reporters are not part of them. Lines headed by an entry give the natural chain unless they say otherwise; changes in a name come on top.
# UniProt Q92844: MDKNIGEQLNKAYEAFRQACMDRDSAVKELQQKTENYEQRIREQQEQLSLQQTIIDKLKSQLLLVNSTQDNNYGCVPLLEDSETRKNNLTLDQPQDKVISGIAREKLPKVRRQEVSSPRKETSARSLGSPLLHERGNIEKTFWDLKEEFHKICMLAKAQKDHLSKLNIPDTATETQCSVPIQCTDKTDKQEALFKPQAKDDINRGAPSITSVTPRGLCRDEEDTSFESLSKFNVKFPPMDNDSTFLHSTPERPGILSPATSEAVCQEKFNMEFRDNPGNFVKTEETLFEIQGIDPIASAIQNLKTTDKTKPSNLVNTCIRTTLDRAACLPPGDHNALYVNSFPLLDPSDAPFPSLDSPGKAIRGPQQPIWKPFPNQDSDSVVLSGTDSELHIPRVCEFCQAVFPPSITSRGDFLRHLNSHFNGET
# UniProt Q17R31: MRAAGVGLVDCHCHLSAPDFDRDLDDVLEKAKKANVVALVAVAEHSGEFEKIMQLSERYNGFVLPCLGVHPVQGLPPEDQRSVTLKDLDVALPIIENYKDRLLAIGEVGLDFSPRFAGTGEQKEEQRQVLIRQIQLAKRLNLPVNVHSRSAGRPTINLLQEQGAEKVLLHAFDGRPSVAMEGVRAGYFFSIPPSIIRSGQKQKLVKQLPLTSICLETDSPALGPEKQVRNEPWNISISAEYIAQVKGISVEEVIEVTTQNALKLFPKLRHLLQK
# UniProt Q9NZ72: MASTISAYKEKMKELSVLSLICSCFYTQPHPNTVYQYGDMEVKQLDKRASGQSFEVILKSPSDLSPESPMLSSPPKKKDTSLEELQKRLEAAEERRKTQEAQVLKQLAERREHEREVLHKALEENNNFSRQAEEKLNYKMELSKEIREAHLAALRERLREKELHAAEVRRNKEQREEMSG
# UniProt Q15572: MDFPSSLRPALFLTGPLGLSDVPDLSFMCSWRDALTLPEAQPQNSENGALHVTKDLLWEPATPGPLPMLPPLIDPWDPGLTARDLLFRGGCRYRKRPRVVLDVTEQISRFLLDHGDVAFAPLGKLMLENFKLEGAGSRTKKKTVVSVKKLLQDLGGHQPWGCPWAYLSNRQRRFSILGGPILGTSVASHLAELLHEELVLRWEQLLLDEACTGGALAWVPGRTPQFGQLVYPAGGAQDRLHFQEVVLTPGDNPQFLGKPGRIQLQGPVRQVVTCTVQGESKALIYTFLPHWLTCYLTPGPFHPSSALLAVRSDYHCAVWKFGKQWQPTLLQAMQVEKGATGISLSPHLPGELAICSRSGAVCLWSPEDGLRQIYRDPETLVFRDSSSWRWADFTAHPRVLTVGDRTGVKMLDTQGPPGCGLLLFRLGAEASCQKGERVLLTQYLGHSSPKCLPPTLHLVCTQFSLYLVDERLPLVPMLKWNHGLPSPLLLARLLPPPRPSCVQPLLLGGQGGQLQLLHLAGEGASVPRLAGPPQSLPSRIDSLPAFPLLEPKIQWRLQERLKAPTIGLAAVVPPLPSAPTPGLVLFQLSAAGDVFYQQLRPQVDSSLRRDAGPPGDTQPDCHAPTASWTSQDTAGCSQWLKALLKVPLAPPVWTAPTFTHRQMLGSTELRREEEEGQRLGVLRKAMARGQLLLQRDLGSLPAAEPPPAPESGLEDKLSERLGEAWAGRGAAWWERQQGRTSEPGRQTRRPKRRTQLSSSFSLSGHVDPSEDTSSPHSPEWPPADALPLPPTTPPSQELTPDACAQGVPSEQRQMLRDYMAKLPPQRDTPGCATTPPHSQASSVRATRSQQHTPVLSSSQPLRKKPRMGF
# UniProt Q9UNL2: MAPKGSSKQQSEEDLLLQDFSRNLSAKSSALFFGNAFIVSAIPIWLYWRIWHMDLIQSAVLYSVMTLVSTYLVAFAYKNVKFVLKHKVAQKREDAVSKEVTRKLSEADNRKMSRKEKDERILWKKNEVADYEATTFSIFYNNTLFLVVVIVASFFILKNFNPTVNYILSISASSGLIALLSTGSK
# UniProt Q9BYT3: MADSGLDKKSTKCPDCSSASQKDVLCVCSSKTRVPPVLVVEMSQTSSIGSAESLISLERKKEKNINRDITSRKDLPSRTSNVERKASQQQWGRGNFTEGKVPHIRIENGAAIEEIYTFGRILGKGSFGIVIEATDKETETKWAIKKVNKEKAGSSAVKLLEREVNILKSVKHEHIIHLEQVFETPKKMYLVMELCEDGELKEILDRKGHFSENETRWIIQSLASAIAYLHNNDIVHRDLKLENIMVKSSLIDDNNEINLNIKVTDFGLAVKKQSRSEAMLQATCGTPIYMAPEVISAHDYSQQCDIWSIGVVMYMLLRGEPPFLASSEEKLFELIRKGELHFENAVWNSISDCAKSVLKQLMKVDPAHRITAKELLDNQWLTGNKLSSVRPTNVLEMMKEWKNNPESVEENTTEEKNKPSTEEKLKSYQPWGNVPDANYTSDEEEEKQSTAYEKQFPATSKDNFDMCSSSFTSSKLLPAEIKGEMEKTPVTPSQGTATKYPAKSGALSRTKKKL
# UniProt Q15005: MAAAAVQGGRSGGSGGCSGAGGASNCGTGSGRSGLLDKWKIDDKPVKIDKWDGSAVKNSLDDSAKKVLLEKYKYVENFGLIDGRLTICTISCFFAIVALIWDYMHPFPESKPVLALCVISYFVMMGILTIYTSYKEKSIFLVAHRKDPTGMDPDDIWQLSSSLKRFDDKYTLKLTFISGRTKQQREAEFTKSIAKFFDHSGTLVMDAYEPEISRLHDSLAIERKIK
# UniProt Q12788: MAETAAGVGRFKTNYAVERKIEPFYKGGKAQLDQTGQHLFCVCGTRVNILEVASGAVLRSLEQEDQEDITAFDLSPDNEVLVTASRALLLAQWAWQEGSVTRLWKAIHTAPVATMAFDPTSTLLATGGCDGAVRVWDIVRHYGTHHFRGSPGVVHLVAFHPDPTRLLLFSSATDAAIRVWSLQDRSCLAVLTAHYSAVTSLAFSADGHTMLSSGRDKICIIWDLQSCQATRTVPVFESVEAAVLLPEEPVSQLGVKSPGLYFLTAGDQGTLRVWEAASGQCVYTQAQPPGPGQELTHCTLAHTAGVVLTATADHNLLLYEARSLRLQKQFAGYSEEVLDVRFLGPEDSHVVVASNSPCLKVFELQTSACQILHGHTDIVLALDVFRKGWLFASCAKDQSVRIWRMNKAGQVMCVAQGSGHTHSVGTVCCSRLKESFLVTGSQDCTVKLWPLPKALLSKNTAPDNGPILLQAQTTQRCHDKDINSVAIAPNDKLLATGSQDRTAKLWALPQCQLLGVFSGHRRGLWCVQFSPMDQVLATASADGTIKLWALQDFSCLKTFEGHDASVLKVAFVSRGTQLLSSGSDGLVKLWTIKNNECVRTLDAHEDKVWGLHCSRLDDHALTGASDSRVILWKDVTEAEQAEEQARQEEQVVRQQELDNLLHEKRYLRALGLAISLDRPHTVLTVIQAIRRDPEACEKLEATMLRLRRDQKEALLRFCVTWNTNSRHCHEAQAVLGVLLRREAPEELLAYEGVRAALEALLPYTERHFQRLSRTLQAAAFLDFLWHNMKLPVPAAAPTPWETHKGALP
# UniProt Q6P1N9: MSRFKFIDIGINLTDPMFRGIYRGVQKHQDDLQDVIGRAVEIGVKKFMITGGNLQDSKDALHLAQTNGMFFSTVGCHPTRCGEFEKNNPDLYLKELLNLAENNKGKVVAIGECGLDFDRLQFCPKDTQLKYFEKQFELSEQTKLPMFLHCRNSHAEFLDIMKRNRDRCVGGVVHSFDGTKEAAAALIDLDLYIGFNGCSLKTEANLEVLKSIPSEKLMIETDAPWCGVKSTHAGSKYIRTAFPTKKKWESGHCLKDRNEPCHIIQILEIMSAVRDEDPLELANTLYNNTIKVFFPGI
# UniProt Q9Y657, whole entry: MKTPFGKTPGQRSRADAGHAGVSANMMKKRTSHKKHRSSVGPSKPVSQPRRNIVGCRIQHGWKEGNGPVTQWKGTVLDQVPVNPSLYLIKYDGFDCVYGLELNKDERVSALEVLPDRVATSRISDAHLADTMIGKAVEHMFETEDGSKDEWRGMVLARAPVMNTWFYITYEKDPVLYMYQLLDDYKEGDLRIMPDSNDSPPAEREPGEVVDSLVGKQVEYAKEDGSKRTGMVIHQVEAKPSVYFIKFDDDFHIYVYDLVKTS
# UniProt Q9UPU7: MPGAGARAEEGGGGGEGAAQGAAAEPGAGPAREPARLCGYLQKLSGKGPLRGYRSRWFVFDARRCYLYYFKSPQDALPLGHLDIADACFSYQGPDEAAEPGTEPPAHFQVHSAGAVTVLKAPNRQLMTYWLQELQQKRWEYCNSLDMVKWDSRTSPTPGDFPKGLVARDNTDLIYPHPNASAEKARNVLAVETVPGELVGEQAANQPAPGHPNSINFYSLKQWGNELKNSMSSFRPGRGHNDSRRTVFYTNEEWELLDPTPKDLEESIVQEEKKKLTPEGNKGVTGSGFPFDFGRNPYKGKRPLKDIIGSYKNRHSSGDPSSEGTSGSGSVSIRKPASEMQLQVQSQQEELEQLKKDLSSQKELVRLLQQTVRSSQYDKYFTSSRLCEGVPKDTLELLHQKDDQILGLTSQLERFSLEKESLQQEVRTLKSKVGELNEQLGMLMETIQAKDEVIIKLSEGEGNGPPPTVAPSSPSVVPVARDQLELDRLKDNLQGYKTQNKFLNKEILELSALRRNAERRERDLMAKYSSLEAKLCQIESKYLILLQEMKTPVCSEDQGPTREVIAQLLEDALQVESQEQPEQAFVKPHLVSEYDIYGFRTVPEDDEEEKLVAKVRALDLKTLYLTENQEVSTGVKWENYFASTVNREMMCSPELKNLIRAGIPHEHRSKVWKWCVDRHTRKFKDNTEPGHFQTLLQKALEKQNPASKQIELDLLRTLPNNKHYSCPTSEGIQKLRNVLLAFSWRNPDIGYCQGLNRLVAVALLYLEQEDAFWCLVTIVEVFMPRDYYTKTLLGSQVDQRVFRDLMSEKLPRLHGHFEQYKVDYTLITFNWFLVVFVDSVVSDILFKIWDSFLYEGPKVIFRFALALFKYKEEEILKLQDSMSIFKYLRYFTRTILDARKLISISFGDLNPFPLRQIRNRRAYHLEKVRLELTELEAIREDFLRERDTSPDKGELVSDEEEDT
# UniProt Q969Z0: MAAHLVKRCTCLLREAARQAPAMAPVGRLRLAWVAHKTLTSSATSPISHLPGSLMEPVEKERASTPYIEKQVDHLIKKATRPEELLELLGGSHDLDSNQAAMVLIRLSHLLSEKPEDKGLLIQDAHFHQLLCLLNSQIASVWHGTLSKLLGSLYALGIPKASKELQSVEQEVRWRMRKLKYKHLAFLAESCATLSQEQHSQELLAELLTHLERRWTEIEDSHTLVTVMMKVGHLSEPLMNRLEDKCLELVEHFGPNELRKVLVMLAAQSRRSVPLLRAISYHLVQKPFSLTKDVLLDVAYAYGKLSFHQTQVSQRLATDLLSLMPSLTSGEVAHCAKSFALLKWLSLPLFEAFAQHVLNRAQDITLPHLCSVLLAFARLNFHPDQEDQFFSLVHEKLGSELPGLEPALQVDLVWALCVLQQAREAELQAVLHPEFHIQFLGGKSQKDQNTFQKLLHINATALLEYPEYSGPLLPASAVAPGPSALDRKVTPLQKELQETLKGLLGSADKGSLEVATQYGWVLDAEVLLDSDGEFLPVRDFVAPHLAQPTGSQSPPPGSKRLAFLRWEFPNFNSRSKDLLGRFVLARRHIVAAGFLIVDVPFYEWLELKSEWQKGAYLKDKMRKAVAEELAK
# UniProt Q16594, whole entry: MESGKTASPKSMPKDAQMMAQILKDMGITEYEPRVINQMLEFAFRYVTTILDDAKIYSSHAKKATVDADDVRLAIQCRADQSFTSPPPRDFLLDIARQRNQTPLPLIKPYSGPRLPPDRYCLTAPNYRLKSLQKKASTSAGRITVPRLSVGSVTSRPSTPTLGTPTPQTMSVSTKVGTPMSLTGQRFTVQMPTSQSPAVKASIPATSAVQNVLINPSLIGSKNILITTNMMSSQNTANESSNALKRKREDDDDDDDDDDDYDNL
# UniProt O15400: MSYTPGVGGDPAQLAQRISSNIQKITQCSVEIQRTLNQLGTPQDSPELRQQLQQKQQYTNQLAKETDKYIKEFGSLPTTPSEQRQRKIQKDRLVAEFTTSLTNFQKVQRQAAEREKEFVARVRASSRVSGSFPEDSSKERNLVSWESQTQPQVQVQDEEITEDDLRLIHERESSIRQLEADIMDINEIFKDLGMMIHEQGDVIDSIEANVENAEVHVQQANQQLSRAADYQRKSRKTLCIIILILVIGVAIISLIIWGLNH
# UniProt O75347: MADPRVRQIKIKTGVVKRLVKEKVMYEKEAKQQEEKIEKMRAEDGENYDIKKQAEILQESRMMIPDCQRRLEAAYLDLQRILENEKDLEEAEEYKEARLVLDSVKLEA
# UniProt Q9NZD8: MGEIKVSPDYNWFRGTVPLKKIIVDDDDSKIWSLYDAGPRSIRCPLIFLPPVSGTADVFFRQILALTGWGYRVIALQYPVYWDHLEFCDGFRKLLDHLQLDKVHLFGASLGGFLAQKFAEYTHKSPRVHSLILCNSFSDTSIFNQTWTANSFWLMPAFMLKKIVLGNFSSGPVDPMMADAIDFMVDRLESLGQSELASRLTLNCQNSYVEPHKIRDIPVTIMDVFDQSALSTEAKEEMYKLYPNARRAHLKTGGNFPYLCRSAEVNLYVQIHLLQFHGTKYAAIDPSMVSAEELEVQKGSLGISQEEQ
# This is one part of the list.
# Compound: COc1ccc(Cn2ccc3cc(C)c(C(=O)NO)cc32)cc1
# Test: dose-dependent thermal stabilisation call (2D-TPP, DLPTP, 10% FDR) (binary (1 = stabilised)); higher = stabilised by the compound
# Details: system: HL-60 intact cells; concentration range 0.04-10 µM
# Experimental: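 2D thermal proteome profiling in intact HL-60 cells treated with BRD-3811 (0, 0.04, 0.29, 2, 10 uM) for 90 min at 37 C, then heated 3 min at one of 12 temperatures (42-63.9 C). Soluble protein was quantified by TMT10 MS. The value is the DLPTP call of the paper: dose-dependent thermal stabilisation over all temperatures at 10% FDR (F-test of a dose-response against a flat model); one experiment, one call per tested protein.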
row,Target,dose-dependent thermal stabilisation call
1,TANK (UniProt Q92844),inactive: 0
2,TCF20 (UniProt Q9UGU0),inactive: 0
3,STIM1 (UniProt Q13586),inactive: 0
4,SSRP1 (UniProt Q08945),inactive: 0
5,SUCLG2 (UniProt Q96I99),inactive: 0
6,STAT3 (UniProt P40763),inactive: 0
7,TARS2 (UniProt Q9BW92),inactive: 0
8,TATDN3 (UniProt Q17R31),inactive: 0
9,SRP14 (UniProt P37108),inactive: 0
10,TACC3 (UniProt Q9Y6A5),inactive: 0
11,TBCEL (UniProt Q5QJ74),inactive: 0
12,SRCAP (UniProt Q6ZRS2),inactive: 0
13,TH1L (UniProt Q8IXH7),inactive: 0
14,SSSCA1 (UniProt O60232),inactive: 0
15,SUCLA2 (UniProt Q9P2R7),inactive: 0
16,STRN4 (UniProt Q9NRL3),inactive: 0
17,TAPT1 (UniProt Q6NXT6),inactive: 0
18,STX18 (UniProt Q9P2W9),inactive: 0
19,TEX10 (UniProt Q9NXF1),inactive: 0
20,STRA13,inactive: 0
21,SUMF1 (UniProt Q8NBK3),inactive: 0
22,THEM2 (UniProt Q9NPJ3),inactive: 0
23,STMN3 (UniProt Q9NZ72),inactive: 0
24,TFB2M (UniProt Q9H5Q4),inactive: 0

row,Target,dose-dependent thermal stabilisation call
1,SREBF2 (UniProt Q12772),inactive: 0
2,STOML2 (UniProt Q9UJZ1),inactive: 0
3,SPRYD4 (UniProt Q8WW59),inactive: 0
4,SRFBP1 (UniProt Q8NEF9),inactive: 0
5,SRPR (UniProt P08240),active: 1
6,TAF1C (UniProt Q15572),inactive: 0
7,STAT5A (UniProt P42229),inactive: 0
8,STAG1 (UniProt Q8WVM7),inactive: 0
9,TGOLN2 (UniProt O43493),inactive: 0
10,SPINT1 (UniProt O43278),inactive: 0
11,SPTBN2 (UniProt O15020),inactive: 0
12,TCF3 (UniProt P15923),inactive: 0
13,SVIP (UniProt Q8NHG7),inactive: 0
14,STK39 (UniProt Q9UEW8),inactive: 0
15,SRP68 (UniProt Q9UHB9),inactive: 0
16,STRN (UniProt O43815),inactive: 0
17,TELO2 (UniProt Q9Y4R8),inactive: 0
18,SRGN (UniProt P10124),inactive: 0
19,STK25 (UniProt O00506),inactive: 0
20,SPC24 (UniProt Q8NBT2),inactive: 0
21,SP2 (UniProt Q02086),inactive: 0
22,SYNGR2 (UniProt O43760),inactive: 0
23,TBC1D13 (UniProt Q9NVG8),inactive: 0
24,SP1 (UniProt P08047),inactive: 0

row,Target,dose-dependent thermal stabilisation call
1,SP110 (UniProt Q9HB58),inactive: 0
2,SPATA5 (UniProt Q8NB90),inactive: 0
3,SYMPK (UniProt Q92797),inactive: 0
4,SRBD1 (UniProt Q8N5C6),inactive: 0
5,SSR1 (UniProt P43307),inactive: 0
6,SURF2 (UniProt Q15527),inactive: 0
7,SSR3 (UniProt Q9UNL2),inactive: 0
8,STK33 (UniProt Q9BYT3),inactive: 0
9,SPAST (UniProt Q9UBP0),inactive: 0
10,STAMBP (UniProt O95630),inactive: 0
11,SPCS1 (UniProt Q9Y6A9),inactive: 0
12,TAF5L (UniProt O75529),inactive: 0
13,TBC1D10B (UniProt Q4KMP7),inactive: 0
14,SPCS3 (UniProt P61009),inactive: 0
15,STRADA (UniProt Q7RTN6),inactive: 0
16,SPCS2 (UniProt Q15005),inactive: 0
17,TBL2 (UniProt Q9Y4P3),inactive: 0
18,TBC1D24 (UniProt Q9ULP9),inactive: 0
19,TBL3 (UniProt Q12788),inactive: 0
20,TAF5 (UniProt Q15542),inactive: 0
21,STK11IP (UniProt Q8N1F8),inactive: 0
22,TATDN1 (UniProt Q6P1N9),inactive: 0
23,SPG11 (UniProt Q96JI7),inactive: 0
24,SRPRB (UniProt Q9Y5M8),inactive: 0

# Reformatted with tabs: entries from further up.
row	Target	dose-dependent thermal stabilisation call
5	SSR1 (UniProt P43307)	inactive: 0
8	STK33 (UniProt Q9BYT3)	inactive: 0
18	TBC1D24 (UniProt Q9ULP9)	inactive: 0
22	TATDN1 (UniProt Q6P1N9)	inactive: 0

# Next part.

row,Target,dose-dependent thermal stabilisation call
1,SUCLG1 (UniProt P53597),inactive: 0
2,ST13 (UniProt P50502),inactive: 0
3,SPIN1 (UniProt Q9Y657),inactive: 0
4,TBC1D2B (UniProt Q9UPU7),inactive: 0
5,STRAP (UniProt Q9Y3F4),inactive: 0
6,SRA1 (UniProt Q9HD15),inactive: 0
7,TCP10L (UniProt Q8TDR4),inactive: 0
8,SOS1 (UniProt Q07889),inactive: 0
9,STK17B (UniProt O94768),inactive: 0
10,TCEB2 (UniProt Q15370),inactive: 0
11,TEX2 (UniProt Q8IWB9),inactive: 0
12,TBCC (UniProt Q15814),inactive: 0
13,TAF9B (UniProt Q9HBM6),inactive: 0
14,STX8 (UniProt Q9UNK0),inactive: 0
15,STXBP2 (UniProt Q15833),inactive: 0
16,STK4 (UniProt Q13043),inactive: 0
17,STC2 (UniProt O76061),inactive: 0
18,TBC1D15 (UniProt Q8TC07),inactive: 0
19,STAM2 (UniProt O75886),inactive: 0
20,TBRG4 (UniProt Q969Z0),inactive: 0
21,TFAP4 (UniProt Q01664),inactive: 0
22,TAF9 (UniProt Q16594),inactive: 0
23,TGFBRAP1 (UniProt Q8WUH2),inactive: 0
24,TCP11L1 (UniProt Q9NUJ3),inactive: 0

# Part of the list above, with tabs:
row	Target	dose-dependent thermal stabilisation call
6	SURF2 (UniProt Q15527)	inactive: 0
7	SSR3 (UniProt Q9UNL2)	inactive: 0
8	STK33 (UniProt Q9BYT3)	inactive: 0
9	SPAST (UniProt Q9UBP0)	inactive: 0

# Later entries:

row,Target,dose-dependent thermal stabilisation call
1,SON (UniProt P18583),inactive: 0
2,TASP1 (UniProt Q9H6P5),inactive: 0
3,TATDN2 (UniProt Q93075),inactive: 0
4,STX7 (UniProt O15400),inactive: 0
5,SURF4 (UniProt O15260),inactive: 0
6,TBC1D22B (UniProt Q9NU19),inactive: 0
7,TACC1 (UniProt O75410),inactive: 0
8,TAP1 (UniProt Q03518),inactive: 0
9,SYF2 (UniProt O95926),inactive: 0
10,TAPBPL (UniProt Q9BX59),inactive: 0
11,TBCA (UniProt O75347),inactive: 0
12,SUPT5H (UniProt O00267),inactive: 0
13,SPNS1 (UniProt Q9H2V7),inactive: 0
14,SYK (UniProt P43405),inactive: 0
15,SSR4 (UniProt P51571),inactive: 0
16,STOM (UniProt P27105),inactive: 0
17,TFDP1 (UniProt Q14186),inactive: 0
18,TBC1D23 (UniProt Q9NUY8),inactive: 0
19,TGFB1 (UniProt P01137),inactive: 0
20,TEX264 (UniProt Q9Y6I9),inactive: 0
21,SPG21 (UniProt Q9NZD8),inactive: 0
22,STX10 (UniProt O60499),inactive: 0
23,STAP1 (UniProt Q9ULZ2),inactive: 0
24,SYPL1 (UniProt Q16563),inactive: 0
